Experimental data: patent publication US20120022129A1, “Targeting of Histone Deacetylase 2, Protein Kinase CK2, and Nuclear Factor NRF2 For Treatment of Inflammatory Diseases” (priority 2008, published 2012)
These are yes or no findings as the source states them, for the method shown. Binding seen in cells or lysates may run through a third protein. Some binding calls cover weakened binding; strength is not graded here.

Sequences of proteins named here, by UniProt entry; tags and fusion partners are left off. A change or cut given only in a name is not applied to a line headed by its entry.
UniProt Q92769: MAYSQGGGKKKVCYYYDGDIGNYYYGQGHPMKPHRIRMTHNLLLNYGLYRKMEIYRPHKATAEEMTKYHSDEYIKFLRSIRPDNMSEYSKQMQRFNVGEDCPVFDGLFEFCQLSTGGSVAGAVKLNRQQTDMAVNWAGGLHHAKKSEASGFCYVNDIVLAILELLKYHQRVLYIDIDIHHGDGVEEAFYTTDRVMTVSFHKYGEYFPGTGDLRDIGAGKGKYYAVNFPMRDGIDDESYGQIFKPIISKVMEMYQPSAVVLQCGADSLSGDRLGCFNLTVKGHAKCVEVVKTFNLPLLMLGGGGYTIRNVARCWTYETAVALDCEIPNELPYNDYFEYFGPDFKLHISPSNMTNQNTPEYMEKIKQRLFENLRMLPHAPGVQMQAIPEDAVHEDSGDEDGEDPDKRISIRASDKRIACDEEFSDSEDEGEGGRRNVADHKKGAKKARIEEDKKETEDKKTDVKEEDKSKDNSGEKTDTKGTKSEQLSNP
UniProt Q13547: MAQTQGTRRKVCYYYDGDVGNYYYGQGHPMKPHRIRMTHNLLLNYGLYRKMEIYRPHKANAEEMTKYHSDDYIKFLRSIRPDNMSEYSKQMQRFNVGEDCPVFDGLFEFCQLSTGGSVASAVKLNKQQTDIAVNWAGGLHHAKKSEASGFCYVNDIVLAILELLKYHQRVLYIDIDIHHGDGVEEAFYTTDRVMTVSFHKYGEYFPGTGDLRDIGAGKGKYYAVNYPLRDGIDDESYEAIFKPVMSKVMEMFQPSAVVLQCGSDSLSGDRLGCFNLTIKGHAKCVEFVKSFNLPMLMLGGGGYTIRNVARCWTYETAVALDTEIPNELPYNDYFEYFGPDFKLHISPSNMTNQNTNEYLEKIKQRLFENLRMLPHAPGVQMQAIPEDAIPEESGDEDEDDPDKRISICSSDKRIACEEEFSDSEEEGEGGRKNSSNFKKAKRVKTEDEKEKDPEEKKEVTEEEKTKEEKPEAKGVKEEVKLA

Biological target: flag-tagged HDAC2 1-400 amino acid mutant (Homo sapiens (Human)) (UniProt Q92769)
Test: co-immunoprecipitation with anti-flag from CSE-treated H292 cells, western blot (FIG. 19D)

## HDAC1 (from UniProt Q13547 1-482) (enzyme)
  binding: binds
